# Patent US7981443B2, “Method of treating sleep disordered breathing using topiramate” (priority 2000, dated 2011)
# Test system: obstructive sleep apnoea (OSA)
# Assay: Double-blind, placebo controlled cross-over study of topiramate in patients with light to moderate OSA
# Format: in vivo
# Details: after topiramate 100 mg b.i.d for 10 days
# Protocol: A double-blind, placebo controlled cross-over study of topiramate was undertaken in 2 patients with light to moderate OSA (A/H index, 22 and 35 on previous screening). Topiramate (100 mg b.i.d or corresponding placebo) was administered for 10 days in each cross-over period. A wash-out period of one week was applied between the two treatment periods.
smiles,measurement,value
"CC1(C)O[C@@H]2[C@@H](CO[C@@]3(COS(N)(=O)=O)OC(C)(C)O[C@@H]23)O1 [topiramate, 2,3:4,5-di-o-isopropylidene-β-D-fructopyranose sulfamate]","Relative proportions of non-REM stage 1+2, slow wave sleep and REM sleep",remained unchanged
same,Total sleep time,no clinically significant change
